The source of these data is PMC11909135, “Raptin, a sleep-induced hypothalamic hormone, suppresses appetite and obesity” (Cell Research, 2025).

The chains behind the UniProt entries cited, without tags or fusion partners. Residues count along the entry.
UniProt Q9QYS2, residues 23-879: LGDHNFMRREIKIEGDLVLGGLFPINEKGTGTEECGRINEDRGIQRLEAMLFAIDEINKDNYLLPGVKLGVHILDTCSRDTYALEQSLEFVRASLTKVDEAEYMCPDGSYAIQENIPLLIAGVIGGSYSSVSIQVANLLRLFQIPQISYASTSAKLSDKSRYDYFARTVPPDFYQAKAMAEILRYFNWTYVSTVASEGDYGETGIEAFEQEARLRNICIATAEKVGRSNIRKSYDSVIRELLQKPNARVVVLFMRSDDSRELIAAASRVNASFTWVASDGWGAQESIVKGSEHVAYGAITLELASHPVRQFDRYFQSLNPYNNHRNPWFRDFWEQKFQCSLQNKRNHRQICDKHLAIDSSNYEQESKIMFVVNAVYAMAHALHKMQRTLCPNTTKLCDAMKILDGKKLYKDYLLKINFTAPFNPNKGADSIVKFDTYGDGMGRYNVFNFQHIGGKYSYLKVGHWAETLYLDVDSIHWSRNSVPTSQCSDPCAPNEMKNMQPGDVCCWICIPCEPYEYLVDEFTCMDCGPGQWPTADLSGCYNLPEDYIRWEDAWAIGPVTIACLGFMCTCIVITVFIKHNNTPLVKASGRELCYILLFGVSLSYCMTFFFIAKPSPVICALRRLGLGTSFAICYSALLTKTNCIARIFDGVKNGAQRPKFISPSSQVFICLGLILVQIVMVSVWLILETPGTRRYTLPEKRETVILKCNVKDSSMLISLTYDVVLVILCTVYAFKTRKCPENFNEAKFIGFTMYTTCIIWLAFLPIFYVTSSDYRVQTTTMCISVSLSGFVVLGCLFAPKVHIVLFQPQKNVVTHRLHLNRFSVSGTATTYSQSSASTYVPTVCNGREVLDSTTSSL

The assay concerns the target T1, recombinant mouse Raptin protein with a His-tag (mouse).
T1 sequence: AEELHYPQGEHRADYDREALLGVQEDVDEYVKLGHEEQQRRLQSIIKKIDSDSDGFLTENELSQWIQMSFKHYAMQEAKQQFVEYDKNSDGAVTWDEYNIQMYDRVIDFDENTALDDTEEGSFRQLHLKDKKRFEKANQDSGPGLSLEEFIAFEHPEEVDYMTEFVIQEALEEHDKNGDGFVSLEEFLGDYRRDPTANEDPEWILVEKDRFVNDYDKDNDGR
Briefly: affinity purification with mass spectrometry; His-Raptin incubated with cell lysate of hypothalamic GT1-7 neurons 2 h at room temperature; captured with anti-His antibody on protein A/G magnetic beads, 4 °C overnight; SDS-PAGE gel used for MS; only the target purified.

These are yes or no findings as the source states them, for the method shown. In cells and extracts the contact can be indirect. A yes stands for co-enrichment or nearness to the bait. Other partners may have been found. Tags and fused reporters may be left off the sequences shown.

Consider “glutamate metabotropic receptor 3 (GRM3), endogenous (from UniProt Q9QYS2 23-879)”, for which the binding result is recorded as “binds”.
